The supplement of paper PMC12593923

Key:
Assay in all cases: drug sensitivity score (DSS2, cytotoxicity, CellTox Green); higher = more cytotoxic / more sensitive; extreme values may be limits of the assay
Conditions in all cases: 72 h; doses 0.5, 1, 5 µM
[1] = test system: OVCAR3
[2] = test system: Kuramochi
[3] = test system: OVCAR4

Structure (SMILES) | drug sensitivity score [1] [DSS] | drug sensitivity score [2] [DSS] | drug sensitivity score [3] [DSS]
O=C1c2c(O)ccc(O)c2C(=O)c2c(NCCNCCO)ccc(NCCNCCO)c21 [Mitoxantrone (dihydrochloride)] | 0 | 0 | 0
COc1ccc(C[C@@H]2c3cc(OC)c(OC)cc3CC[N@+]2(C)CCC(=O)OCCCCCOC(=O)CC[N@@+]2(C)CCc3cc(OC)c(OC)cc3[C@H]2Cc2ccc(OC)c(OC)c2)cc1OC [Cisatracurium (besylate)] | 0 | 0 | 0
O=C1OCCN1/N=C/c1ccc([N+](=O)[O-])o1 [Furazolidone] | 0 | 0 | 0
CCCC(CCC)C(=O)O [Valproic acid] | 0 | 0 | 0
O=S(=O)(c1cccc2c(O)nccc12)N1CCCNCC1 [Hydroxyfasudil (hydrochloride)] | 2.7 | 0.9 | 2.7
O=c1[nH]c(=O)n([C@H]2C[C@H](O)[C@@H](CO)O2)cc1F [Floxuridine] | 0 | 0 | 0
NCCC(O)(P(=O)(O)O)P(=O)(O)O [Pamidronic acid] | 0 | 0 | 0
CCC(C)(Oc1ccc(C2(c3ccc(OC(C)(CC)C(=O)O)cc3)CCCCC2)cc1)C(=O)O (centres undefined) [Clinofibrate] | 0 | 0 | 0
CC(C)c1c(C(=O)Nc2ccccc2)c(-c2ccccc2)c(-c2ccc(F)cc2)n1CC[C@@H](O)C[C@@H](O)CC(=O)O [Atorvastatin (hemicalcium salt)] | 0 | 0 | 0
OC[C@H]1O[C@@H](n2cnc3c2N=CNC[C@H]3O)C[C@@H]1O [Pentostatin] | 0 | 0 | 0
O=C1CCC(N2Cc3c(C#CCCCNC(=O)c4ccc(NC(=O)[C@@H]5NC6(CCCCC6)[C@@]6(C(=O)Nc7cc(Cl)ccc76)[C@H]5c5cccc(Cl)c5F)cc4)cccc3C2=O)C(=O)N1 (some centres undefined) [MD-224] | 0 | 0 | 0
C[C@@H](Oc1cc(-c2cnn(C3CCNCC3)c2)cnc1N)c1c(Cl)ccc(F)c1Cl [Crizotinib] | 0 | 0 | 0
COc1ccccc1OCC(O)CN1CCN(CC(=O)Nc2c(C)cccc2C)CC1 (centres undefined) [Ranolazine (dihydrochloride)] | 0 | 0 | 0
O=c1[nH]c2ccccc2n1C1CCN(CCCC(c2ccc(F)cc2)c2ccc(F)cc2)CC1 [Pimozide] | 0 | 0 | 0.1
C#CCN[C@@H]1CCc2ccccc21 [Rasagiline (mesylate)] | 0 | 0 | 0
Nc1ccn([C@@H]2O[C@H](CO)[C@@H](O)C2(F)F)c(=O)n1 [Gemcitabine] | 0 | 0 | 0
CCCC(=O)Nc1ncnc2c1ncn2[C@@H]1O[C@@H]2COP(=O)(O)O[C@H]2[C@H]1OC(=O)CCC [Bucladesine (sodium)] | 0 | 0 | 0
NC(=O)c1cccc2cn(-c3ccc([C@@H]4CCCNC4)cc3)nc12 [Niraparib (tosylate)] | 0 | 0 | 0
CO[C@H]1C[C@@H]2CC[C@@H](C)[C@@](O)(O2)C(=O)C(=O)N2CCCC[C@H]2C(=O)O[C@H]([C@H](C)C[C@@H]2CC[C@@H](OCCO)[C@H](OC)C2)CC(=O)[C@H](C)/C=C(\C)[C@@H](O)[C@@H](OC)C(=O)[C@H](C)C[C@H](C)/C=C/C=C/C=C/1C [Everolimus] | 0 | 0 | 0
O=S(=O)(O)c1cc(O)ccc1O [Calcium dobesilate] | 0 | 0 | 0
CC(=O)O[C@@]12CO[C@@H]1C[C@H](O)[C@@]1(C)C(=O)[C@H](O)C3=C(C)[C@@H](OC(=O)[C@H](O)[C@@H](NC(=O)OC(C)(C)C)c4ccccc4)C[C@@](O)([C@@H](OC(=O)c4ccccc4)[C@H]21)C3(C)C [Docetaxel (Trihydrate)] | 5.2 | 4 | 0
Nc1ncnc2c1ncn2[C@@H]1O[C@H](CO)[C@@H](O)[C@H]1O [Adenosine] | 0 | 0 | 0
C[Se]CC[C@H](N)C(=O)O [L-SelenoMethionine] | 0 | 0 | 0
COc1cc(OC)cc(N(CCNC(C)C)c2ccc3ncc(-c4cnn(C)c4)nc3c2)c1 [Erdafitinib] | 0.3 | 0 | 0

Structure (SMILES) | drug sensitivity score [1] [DSS] | drug sensitivity score [2] [DSS] | drug sensitivity score [3] [DSS]
O=C(O)C[C@H](O)C[C@H](O)/C=C/c1c(C2CC2)nc2ccccc2c1-c1ccc(F)cc1 [Pitavastatin (Calcium)] | 0 | 0 | 0
CC(C)(C)NCC(O)c1ccc(O)c(CO)c1 (centres undefined) [Salbutamol (hemisulfate)] | 0 | 0 | 0
N#CC[C@H](C1CCCC1)n1cc(-c2ncnc3[nH]ccc23)cn1 [Ruxolitinib (phosphate)] | 0 | 0 | 0
O=C1CCC[C@@H]2[C@H]3CCCN4CCC[C@@H](CN12)[C@@H]34 [Matrine] | 0 | 0 | 0
N#Cc1ccc(C(c2ccc(C#N)cc2)n2cncn2)cc1 [Letrozole] | 0 | 0 | 0
COCCOC(=O)C1=C(C)NC(C)=C(C(=O)OC(C)C)C1c1cccc([N+](=O)[O-])c1 (centres undefined) [Nimodipine] | 0 | 0 | 0
O=C(/C=C/c1cccc(S(=O)(=O)Nc2ccccc2)c1)NO [Belinostat] | 2.9 | 1.7 | 1.5
CCc1c2c(nc3ccc(OC(=O)N4CCC(N5CCCCC5)CC4)cc13)-c1cc3c(c(=O)n1C2)COC(=O)[C@]3(O)CC [Irinotecan (hydrochloride trihydrate)] | 0 | 0 | 0
O=[N+]([O-])O[C@@H]1CO[C@H]2[C@@H]1OC[C@@H]2O [Isosorbide mononitrate] | 0 | 0 | 0
NC(=O)N1c2ccccc2C=Cc2ccccc21 [Carbamazepine] | 0 | 0 | 0
CC(C)(C)c1ccc(C(O)CCCN2CCC(C(O)(c3ccccc3)c3ccccc3)CC2)cc1 (centres undefined) [Terfenadine] | 0 | 0.8 | 1.3
CC1(C)CCC(C)(C)c2cc(NC(=O)c3ccc(C(=O)O)cc3)ccc21 [Tamibarotene] | 0 | 0 | 0
COc1ccc(CN2CCNCC2)c(OC)c1OC [Trimetazidine (dihydrochloride)] | 0 | 0 | 0
CCN1CCN(c2ccc(Nc3cc(N(C)C(=O)Nc4c(Cl)c(OC)cc(OC)c4Cl)ncn3)cc2)CC1 [Infigratinib] | 1.5 | 0.7 | 2.3
COc1ccc(C(C)=O)c(O)c1 [Paeonol] | 0.3 | 0 | 0
CN(C)C(=O)c1cc2cnc(Nc3ccc(N4CCNCC4)cn3)nc2n1C1CCCC1 [Ribociclib] | 0.7 | 0 | 0
Cn1nnc2c(C(N)=O)ncn2c1=O [Temozolomide] | 0 | 0 | 0
O=C1C(c2c(O)[nH]c3ccccc23)=Nc2ccccc21 [Indirubin] | 0 | 0 | 0
COc1cc(C)c(/C=C/C(C)=C/C=C/C(C)=C/C(=O)O)c(C)c1C [Acitretin] | 0 | 0 | 0
CC(=O)Oc1ccccc1C(=O)Nc1ncc([N+](=O)[O-])s1 [Nitazoxanide] | 0 | 0 | 0
CC(C)[C@]12O[C@H]1[C@@H]1O[C@]13[C@]1(O[C@H]1C[C@H]1C4=C(CC[C@@]13C)C(=O)OC4)[C@@H]2O [Triptolide] | 0 | 0 | 4.8
COc1c(N2CCNC(C)C2)c(F)cc2c(=O)c(C(=O)O)cn(C3CC3)c12 (centres undefined) [Gatifloxacin (hydrochloride)] | 0 | 0 | 0
CC(C)(C)c1ccc(C(=O)NC(=S)Nc2ccc(N)cc2)cc1 [Tenovin-3] | 0 | 0 | 0
C[C@@H]1C[C@H]2[C@@H]3CCC4=CC(=O)C=C[C@]4(C)[C@@]3(F)[C@@H](O)C[C@]2(C)[C@@]1(O)C(=O)CO [Dexamethasone] | 0 | 0 | 0

Some of these compounds in order of heavy-atom count, smallest number first:
Structure (SMILES) | drug sensitivity score [1] [DSS] | drug sensitivity score [2] [DSS] | drug sensitivity score [3] [DSS]
O=[N+]([O-])O[C@@H]1CO[C@H]2[C@@H]1OC[C@@H]2O [Isosorbide mononitrate] | 0 | 0 | 0
Cn1nnc2c(C(N)=O)ncn2c1=O [Temozolomide] | 0 | 0 | 0
CC(C)(C)NCC(O)c1ccc(O)c(CO)c1 (centres undefined) [Salbutamol (hemisulfate)] | 0 | 0 | 0
O=C1CCC[C@@H]2[C@H]3CCCN4CCC[C@@H](CN12)[C@@H]34 [Matrine] | 0 | 0 | 0
COc1ccc(CN2CCNCC2)c(OC)c1OC [Trimetazidine (dihydrochloride)] | 0 | 0 | 0
O=C1C(c2c(O)[nH]c3ccccc23)=Nc2ccccc21 [Indirubin] | 0 | 0 | 0
CC(=O)Oc1ccccc1C(=O)Nc1ncc([N+](=O)[O-])s1 [Nitazoxanide] | 0 | 0 | 0
O=C(/C=C/c1cccc(S(=O)(=O)Nc2ccccc2)c1)NO [Belinostat] | 2.9 | 1.7 | 1.5
CC(C)(C)c1ccc(C(=O)NC(=S)Nc2ccc(N)cc2)cc1 [Tenovin-3] | 0 | 0 | 0
COc1cc(C)c(/C=C/C(C)=C/C=C/C(C)=C/C(=O)O)c(C)c1C [Acitretin] | 0 | 0 | 0
COc1c(N2CCNC(C)C2)c(F)cc2c(=O)c(C(=O)O)cn(C3CC3)c12 (centres undefined) [Gatifloxacin (hydrochloride)] | 0 | 0 | 0
CN(C)C(=O)c1cc2cnc(Nc3ccc(N4CCNCC4)cn3)nc2n1C1CCCC1 [Ribociclib] | 0.7 | 0 | 0
CCN1CCN(c2ccc(Nc3cc(N(C)C(=O)Nc4c(Cl)c(OC)cc(OC)c4Cl)ncn3)cc2)CC1 [Infigratinib] | 1.5 | 0.7 | 2.3

Where a name gives a salt, the structure may show the parent alone. Several reference drugs read as weak here; read low effects with care.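 OVCAR3, described as chemosensitive, is one of three high-grade serous ovarian cancer lines that differ in chemosensitivity. Toxicity was scaled from DMSO vehicle wells to fully lysed wells; scores came from fitted multi-dose response curves, and the authors treated scores above 5 as indicating drug sensitivity.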
